Experimental data: patent US20070219767A1, “ATOMIC COORDINATES OF ALBUMIN DRUG COMPLEXES AND METHOD OF USE OF PHARMACEUTICAL DEVELOPMENT” (priority 2003, published 2007)
Entries after “also recorded” stand apart in the source; their conditions may differ.

Sequences of proteins named here, by UniProt entry; tags and fusion partners are left off. Residues count along the entry.
UniProt P02768, 25-609: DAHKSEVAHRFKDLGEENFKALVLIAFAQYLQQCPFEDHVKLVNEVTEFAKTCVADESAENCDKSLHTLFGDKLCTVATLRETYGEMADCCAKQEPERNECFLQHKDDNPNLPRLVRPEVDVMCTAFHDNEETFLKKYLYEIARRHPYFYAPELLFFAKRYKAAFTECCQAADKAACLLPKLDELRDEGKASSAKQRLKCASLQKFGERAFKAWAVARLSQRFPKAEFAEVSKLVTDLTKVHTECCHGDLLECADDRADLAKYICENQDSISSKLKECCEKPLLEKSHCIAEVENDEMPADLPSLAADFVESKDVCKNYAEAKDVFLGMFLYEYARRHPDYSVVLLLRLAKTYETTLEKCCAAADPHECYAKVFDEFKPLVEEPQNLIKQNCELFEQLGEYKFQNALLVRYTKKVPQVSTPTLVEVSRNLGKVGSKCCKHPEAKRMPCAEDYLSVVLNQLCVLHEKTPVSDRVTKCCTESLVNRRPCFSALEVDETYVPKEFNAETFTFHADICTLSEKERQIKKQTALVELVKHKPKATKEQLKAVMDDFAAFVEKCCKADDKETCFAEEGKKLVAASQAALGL

Target: human serum albumin (Homo sapiens, UniProt P02768)
Experiment: X-ray crystallography of human serum albumin/drug complexes: binding location
Design: Domain I (1 through 192); Domain II (193 through 395);Domain III (396 THROUGH 585)
Conditions: Table II, Phase II; refined coordinates; listed residues within 5 Å of bound ligand
Description: This information was derived from crystallization of the protein/ligand to create a protein/ligand complex and determining the atomic structure of the resulting complex by x-ray diffraction. The ligand may be any ligand capable of binding to the human serum albumin protein, and is preferably a ligand that binds to one of the binding sites described herein.
One method of obtaining information regarding the structural; characteristics of the albumin binding regions is through protein crystallization processes.
By applying standard crystallization protocols to the above described crystallizable compositions, crystals of the human serum albumin complex may be obtained. This, an even further aspect of this invention relates to a method of preparing human serum albumin complex-containing crystals. The method comprises the steps of • (a) obtaining a crystallizable composition comprising a human serum albumin protein, divalent cations, and a ligand capable of binding to the protein, and • (b) subjecting the composition of step (a) to conditions which promote crystallization.
The “active site binding pockets” or “active site” of human serum albumin refers to one of several areas determined experimentally on the human serum albumin protein surface where substrates bind.

COc1ccc2cc([C@H](C)C(=O)O)ccc2c1 [Naproxen]
Binding site of the Drug-Albumin Complex (site heading the list of contacting residues): Site IB, L115, V116, R117, P118, M123, L135, Y138, L139, I142,; also recorded: Site IIA-IIB, R209, A210, A213, D324, L327, G328, L331, L347,; also recorded: Site IIIA, L387, I388, N391, C392, F403, L407, R410, Y411, K414,
